Reference: article PMC12204625
No constants are given. Whether binding was seen depends on the method and setting. In cells and extracts the contact can be indirect. Where a sequence is shown, tags or fusion partners need not be part of it.

Assays:
[1] = target: T1, IFI27-V82A-HA variant (human) (UniProt P40305); assay: co-IP; HEK-293T co-transfected with IFI27-HA (WT or variants) and PACT-FLAG, poly(I:C) 3000 ng/ml for 24 h; anti-HA affinity resin overnight at 4 °C; Western blot with anti-FLAG and anti-HA
T1 sequence: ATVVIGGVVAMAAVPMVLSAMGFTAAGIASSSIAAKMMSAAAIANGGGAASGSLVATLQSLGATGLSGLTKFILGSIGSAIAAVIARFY

[2] = target: T2, IFI27-S63L-HA variant (human) (UniProt P40305); assay: as above
T2 sequence: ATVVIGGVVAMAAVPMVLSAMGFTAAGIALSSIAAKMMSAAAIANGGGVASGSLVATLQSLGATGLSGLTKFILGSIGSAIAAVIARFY

binding [1]: no binding
binding [2]: no binding
B1: PKR-activating protein (PACT) fused to a C-terminal FLAG tag (protein, UniProt O75569-1 1-313)
chain: MSQSRHRAEAPPLEREDSGTFSLGKMITAKPGKTPIQVLHEYGMKTKNIPVYECERSDVQIHVPTFTFRVTVGDITCTGEGTSKKLAKHRAAEAAINILKANASICFAVPDPLMPDPSKQPKNQLNPIGSLQELAIHHGWRLPEYTLSQEGGPAHKREYTTICRLESFMETGKGASKKQAKRNAAEKFLAKFSNISPENHISLTNVVGHSLGCTWHSLRNSPGEKINLLKRSLLSIPNTDYIQLLSEIAKEQGFNITYLDIDELSANGQYQCLAELSTSPITVCHGSGISCGNAQSDAAHNALQYLKIIAERK
